Some of the results follow.
Key:
Assay in all cases: glycan array binding signal (z-score within array); higher = stronger binding
Conditions in all cases: glycan notation: IUPAC condensed, linker removed
[1] = molecular target: Fuc(a1-2)[GalNAc(a1-3)]Gal(b1-3)GlcNAc(b1-6)GalNAc
Outline: (§1)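 Glycan array data came from 3228 arrays in the Consortium for Functional Glycomics database, and only arrays with an available protein sequence were kept. Glycan names were put into IUPAC-condensed notation, and columns mapping to the same glycan were averaged. The binding signal is a within-array Z-score, averaged across arrays of one protein sequence run at different concentrations or buffers and across linkers. A negative Z-score can be read as non-binding.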

[2] = molecular target: Fuc(a1-2)[GalNAc(a1-3)]Gal(b1-4)Glc
Outline: as §1

[3] = molecular target: Fuc(a1-2)[GalNAc(a1-3)]Gal(b1-4)GlcNAc
Outline: as §1

[4] = molecular target: Fuc(a1-2)[GalNAc(a1-3)]Gal(b1-4)GlcNAc(b1-2)Man
Outline: as §1

[5] = molecular target: Fuc(a1-2)[GalNAc(a1-3)]Gal(b1-4)GlcNAc(b1-2)Man(a1-3)[Fuc(a1-2)[GalNAc(a1-3)]Gal(b1-4)GlcNAc(b1-2)Man(a1-6)]Man(b1-4)GlcNAc(b1-4)GlcNAc
Outline: as §1

[6] = molecular target: Fuc(a1-2)[GalNAc(a1-3)]Gal(b1-4)GlcNAc(b1-2)Man(a1-3)[Fuc(a1-2)[GalNAc(a1-3)]Gal(b1-4)GlcNAc(b1-2)Man(a1-6)]Man(b1-4)GlcNAc(b1-4)[Fuc(a1-6)]GlcNAc
Outline: as §1

[7] = molecular target: Fuc(a1-2)[GalNAc(a1-3)]Gal(b1-4)GlcNAc(b1-3)Gal(b1-4)GlcNAc
Outline: as §1

[8] = molecular target: Fuc(a1-2)[GalNAc(a1-3)]Gal(b1-4)GlcNAc(b1-3)Gal(b1-4)GlcNAc(b1-3)Gal(b1-4)GlcNAc
Outline: as §1

[9] = molecular target: Fuc(a1-2)[GalNAc(a1-3)]Gal(b1-4)GlcNAc(b1-3)GalNAc
Outline: as §1

[10] = molecular target: Fuc(a1-2)[GalNAc(a1-3)]Gal(b1-4)GlcNAc(b1-3)[Fuc(a1-2)[GalNAc(a1-3)]Gal(b1-4)GlcNAc(b1-6)]GalNAc
Outline: as §1

[11] = molecular target: Fuc(a1-2)[GalNAc(a1-3)]Gal(b1-4)GlcNAc(b1-6)GalNAc
Outline: as §1

[12] = molecular target: Fuc(a1-2)[GalNAc(a1-3)]Gal(b1-4)[Fuc(a1-3)]GlcNAc
Outline: as §1

[13] = molecular target: Fuc(a1-2)[GalNAc(a1-3)]Gal(b1-4)[Fuc(a1-3)]GlcNAc(b1-3)GalNAc
Outline: as §1

[14] = molecular target: Fuc(a1-2)[GalNAc(a1-4)]Gal(b1-4)GlcNAc
Outline: as §1

[15] = molecular target: Fuc(a1-2)[GalNAc(b1-3)]Gal
Outline: as §1

[16] = molecular target: Fuc(a1-3)GlcNAc
Outline: as §1

[17] = molecular target: Fuc(a1-3)[Gal(b1-4)]Glc6S
Outline: as §1

[18] = molecular target: Fuc(a1-3)[Gal(b1-4)]GlcNAc
Outline: as §1

[19] = molecular target: Fuc(a1-3)[Gal(b1-4)]GlcNAc(b1-2)Man
Outline: as §1

[20] = molecular target: Fuc(a1-3)[Gal(b1-4)]GlcNAc(b1-2)Man(a1-3)[Fuc(a1-3)[Gal(b1-4)]GlcNAc(b1-2)Man(a1-6)]Man(b1-4)GlcNAc(b1-4)GlcNAc
Outline: as §1

[21] = molecular target: Fuc(a1-3)[Gal(b1-4)]GlcNAc(b1-2)Man(a1-3)[Fuc(a1-3)[Gal(b1-4)]GlcNAc(b1-2)Man(a1-6)]Man(b1-4)GlcNAc(b1-4)[Fuc(a1-6)]GlcNAc
Outline: as §1

[22] = molecular target: Fuc(a1-3)[Gal(b1-4)]GlcNAc(b1-3)Gal(b1-3)[Fuc(a1-4)]GlcNAc
Outline: as §1

[23] = molecular target: Fuc(a1-3)[Gal(b1-4)]GlcNAc(b1-3)Gal(b1-4)[Fuc(a1-3)]GlcNAc
Outline: as §1

[24] = molecular target: Fuc(a1-3)[Gal(b1-4)]GlcNAc(b1-3)Gal(b1-4)[Fuc(a1-3)]GlcNAc(b1-3)Gal(b1-4)[Fuc(a1-3)]GlcNAc
Outline: as §1

[25] = molecular target: Fuc(a1-3)[Gal(b1-4)]GlcNAc(b1-3)GalNAc
Outline: as §1

[26] = molecular target: Fuc(a1-3)[Gal(b1-4)]GlcNAc(b1-6)GalNAc
Outline: as §1

[27] = molecular target: Fuc(a1-3)[Gal(b1-4)]GlcNAc(b1-6)[Gal(b1-3)GlcNAc(b1-3)]Gal(b1-4)Glc
Outline: as §1

[28] = molecular target: Fuc(a1-3)[Gal(b1-4)]GlcNAc6S
Outline: as §1

[29] = molecular target: Fuc(a1-3)[Gal3S(b1-4)]Glc
Outline: as §1

[30] = molecular target: Fuc(a1-3)[Gal3S(b1-4)]GlcNAc
Outline: as §1

[31] = molecular target: Fuc(a1-3)[Gal3S(b1-4)]GlcNAc6S
Outline: as §1

[32] = molecular target: Fuc(a1-3)[GalNAc(b1-4)]GlcNAc
Outline: as §1

[33] = molecular target: Fuc(a1-3)[GalNAc(b1-4)]GlcNAc6S
Outline: as §1

[34] = molecular target: Fuc(a1-4)GlcNAc
Outline: as §1

[35] = molecular target: Fuc(b1-3)GlcNAc
Outline: as §1

[36] = molecular target: Gal(a1-2)Gal
Outline: as §1

[37] = molecular target: Gal(a1-3)Gal
Outline: as §1

[38] = molecular target: Gal(a1-3)Gal(b1-3)GlcNAc
Outline: as §1

[39] = molecular target: Gal(a1-3)Gal(b1-3)GlcNAc(b1-2)Man
Outline: as §1

[40] = molecular target: Gal(a1-3)Gal(b1-3)GlcNAc(b1-2)Man(a1-3)[Gal(a1-3)Gal(b1-3)GlcNAc(b1-2)Man(a1-6)]Man(b1-4)GlcNAc(b1-4)GlcNAc
Outline: as §1

[41] = molecular target: Gal(a1-3)Gal(b1-3)GlcNAc(b1-3)GalNAc
Outline: as §1

[42] = molecular target: Gal(a1-3)Gal(b1-3)GlcNAc(b1-6)GalNAc
Outline: as §1

[43] = molecular target: Gal(a1-3)Gal(b1-3)[Fuc(a1-4)]GlcNAc(b1-2)Man(a1-3)[Gal(a1-3)Gal(b1-3)[Fuc(a1-4)]GlcNAc(b1-2)Man(a1-6)]Man(b1-4)GlcNAc(b1-4)GlcNAc
Outline: as §1

[44] = molecular target: Gal(a1-3)Gal(b1-4)Glc
Outline: as §1

[45] = molecular target: Gal(a1-3)Gal(b1-4)GlcNAc
Outline: as §1

B1: Clec18A (Homo sapiens) (protein)
chain: PFHTCDLRIDGDCFMVSSEADTYYRARMKCQRKGGVLAQIKRQKVQDILAFYLGRLETTNEVIDSDFETRNFWIGLTYKTAKDSFRWATGEHQAFTSFAFGQPDNHGFGNCVELQASAAFNWNDQRCKTRNRYICQ
- glycan array binding signal (z-score) [1]: -0.729
- glycan array binding signal (z-score) [2]: -0.549
- glycan array binding signal (z-score) [3]: -0.156
- glycan array binding signal (z-score) [4]: -0.346
- glycan array binding signal (z-score) [5]: 4.62
- glycan array binding signal (z-score) [6]: -0.644
- glycan array binding signal (z-score) [7]: -0.808
- glycan array binding signal (z-score) [8]: -0.814
- glycan array binding signal (z-score) [9]: 0.596
- glycan array binding signal (z-score) [10]: 0.135
- glycan array binding signal (z-score) [11]: -0.523
- glycan array binding signal (z-score) [12]: -0.083
- glycan array binding signal (z-score) [13]: -0.08
- glycan array binding signal (z-score) [14]: 0.698
- glycan array binding signal (z-score) [15]: 1.09
- glycan array binding signal (z-score) [16]: -0.783
- glycan array binding signal (z-score) [17]: 0.584
- glycan array binding signal (z-score) [18]: -0.361
- glycan array binding signal (z-score) [19]: -0.329
- glycan array binding signal (z-score) [20]: -0.573
- glycan array binding signal (z-score) [21]: 1.33
- glycan array binding signal (z-score) [22]: 0.071
- glycan array binding signal (z-score) [23]: 0.611
- glycan array binding signal (z-score) [24]: -0.768
- glycan array binding signal (z-score) [25]: -0.458
- glycan array binding signal (z-score) [26]: -0.667
- glycan array binding signal (z-score) [27]: -0.392
- glycan array binding signal (z-score) [28]: 0.42
- glycan array binding signal (z-score) [29]: -0.058
- glycan array binding signal (z-score) [30]: 0.178
- glycan array binding signal (z-score) [31]: 0.231
- glycan array binding signal (z-score) [32]: 0.38
- glycan array binding signal (z-score) [33]: 1.94
- glycan array binding signal (z-score) [34]: -0.682
- glycan array binding signal (z-score) [35]: -0.657
- glycan array binding signal (z-score) [36]: -0.514
- glycan array binding signal (z-score) [37]: 0.795
- glycan array binding signal (z-score) [38]: 2.38
- glycan array binding signal (z-score) [39]: 1.51
- glycan array binding signal (z-score) [40]: 0.649
- glycan array binding signal (z-score) [41]: -0.324
- glycan array binding signal (z-score) [42]: 0.272
- glycan array binding signal (z-score) [43]: 2.1
- glycan array binding signal (z-score) [44]: 0.259
- glycan array binding signal (z-score) [45]: -0.505
